# The other results are listed elsewhere or left out. The main result of the screen is listed elsewhere. These columns were measured beside it and carry no call. The list favours compounds with an active or inconclusive main result. Potencies come from curve fits of mixed quality, noted in brackets.
# Test: qHTS Assay for Lipid Storage Modulators in Drosophila S3 Cells;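 as to cell number change: cells counted by Cell Tracker Red CMTPX staining in the red channel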
# Conditions: BODIPY lipid droplet fluorescence, 18-24 h; for cell number change: measured here: cell count max response, cells fed with added oleic acid
# Method in brief: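 Drosophila S3 cells loaded with oleic acid (400 uM, as added) and compounds at several concentrations; lipid droplets imaged by 488-nm laser-scanning cytometry, 500–530 nm intensity and object ratio to cell channel. Percent activity normalized to 20 uM Triacsin C.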
# [1] = measured here: cell number channel AC50, cells fed with added oleic acid
# [2] = measured here: lipid fluorescence (Fed channel) AC50, cells fed with added oleic acid
SMILES,cell number change,AC50 [1],AC50 [2]
CCCCc1ccc(NC(=O)COc2ccc(C(=O)Nc3ccccc3OCC)cc2)cc1,-33.2%,"9.2 µM [falling, partial curve]","0.651 µM [falling, full curve, poor fit]"
CC(=O)Nc1ccc(S(=O)(=O)N2c3ccccc3NC(=O)CC2C)c(Cl)c1 (configuration not stated),-11.4%,–,"0.92 µM [falling, full curve, poor fit]"
CC(CCc1ccccc1)NC(=O)c1ccc(Br)cc1 (configuration not stated),15.1%,–,"29.1 µM [falling, single point]"
O=C(Nc1ccc2nsnc2c1)NC1CCCCC1,21.2%,"0.651 µM [rising, full curve, poor fit]",–
COc1ccccc1N(/N=C1\Sc2ccccc2C1=O)C(C)=O,–,–,"18.4 µM [falling, partial curve]"
C[C@@H]1CC=C[C@H]2[C@H]1C(=O)N(Cc1ccccc1)[C@H]2c1ccc(-c2ccc(N(C)C)cc2)cc1F,-11%,–,"32.6 µM [falling, single point]"
CC(C)(C)c1ccc(S(=O)(=O)N2CC(=O)Nc3ccccc32)cc1,-66.1%,"29.1 µM [falling, single point]","1.64 µM [falling, full curve, poor fit]"
COc1ccccc1CCNC(=O)C(=O)NCC1OCCCN1S(=O)(=O)c1cc(C)ccc1C (configuration not stated),-55.4%,"9.2 µM [falling, partial curve]","2.59 µM [falling, partial curve, poor fit]"
CCOc1ccc(N2CC(C(=O)N3CCCCC3)CC2=O)cc1 (configuration not stated),9.57%,–,–
Cc1c(Cc2ccc3c(c2)OCO3)sc(NC(=O)C(C)(C)C)c1C#N,31.7%,"5.8 µM [rising, full curve, poor fit]","5.8 µM [rising, full curve]"
Cc1ccc(C(=O)c2ccc(C)cc2)cc1,38.3%,"9.2 µM [rising, single point]","2.31 µM [rising, partial curve]"
Cc1cc(C)cc(NC(=O)CNC(c2ccccc2)c2ccccc2)c1,41.9%,–,"13 µM [rising, partial curve]"
CC1CCC(NC(=O)c2ccc(NS(=O)(=O)c3ccc4[nH]c(=O)[nH]c4c3)cc2)CC1 (configuration not stated),-59.1%,"18.4 µM [falling, single point]","29.1 µM [falling, single point]"
Cc1ccc(-c2csc(NC(=O)C3=NN(c4ccccc4)C(=O)CC3)n2)cc1,-6.24%,–,"0.00411 µM [falling, full curve, poor fit]"
CC1=C(C(N)=O)C(c2sccc2C)n2nnnc2N1 (configuration not stated),-9.48%,–,–
Cc1ccc2c(c1)C(c1ccccc1)N(C(=O)c1cccc([N+](=O)[O-])c1)CC(=O)N2 (configuration not stated),12.9%,–,"0.231 µM [rising, full curve, poor fit]"
Cn1c2c(c(=O)n(C)c1=O)C(c1ccccc1F)C(C#N)=C(N)O2 (configuration not stated),–,–,"29.1 µM [rising, single point]"
COc1ccccc1C(=O)NCC(=O)N1CCN(c2ncccn2)CC1,-56.7%,"23.1 µM [falling, single point]","18.4 µM [falling, single point]"
CCSc1nnc(NC(=O)C2C3C=CC(C3)C2C(=O)O)s1 (configuration not stated),-56.2%,"0.651 µM [falling, full curve]","1.84 µM [falling, partial curve]"
O=C(CCSc1nnc(-c2ccco2)o1)Nc1ccc(F)cc1,26.8%,"0.00461 µM [rising, full curve, poor fit]",–

# Of the compounds above, two contain a cyano group:
SMILES,cell number change,AC50 [1],AC50 [2]
Cc1c(Cc2ccc3c(c2)OCO3)sc(NC(=O)C(C)(C)C)c1C#N,31.7%,"5.8 µM [rising, full curve, poor fit]","5.8 µM [rising, full curve]"
Cn1c2c(c(=O)n(C)c1=O)C(c1ccccc1F)C(C#N)=C(N)O2 (configuration not stated),–,–,"29.1 µM [rising, single point]"

# Further entries follow:

SMILES,cell number change,AC50 [1],AC50 [2]
C=CCNC(=S)N/N=C/c1ccc(-c2cccc([N+](=O)[O-])c2)o1,-10.6%,–,–
COc1cc(OC)cc(-n2c3nc4ccccc4nc3c3c(=O)n(CC4CCCO4)cnc32)c1 (configuration not stated),6.42%,–,"0.651 µM [rising, full curve]"
CCCCCCCCC1=NCCc2c1[nH]c1ccccc21,-55.1%,"29.1 µM [falling, single point]","25.9 µM [falling, single point]"
Cc1cc(C)cc(NC(=O)CSCc2cc(=O)n3ccsc3n2)c1,5.1%,–,"3.66 µM [rising, single point]"
O=S1(=O)CC(O)C(N=Nc2c(O)n(Cc3ccccc3)c3ccccc23)C1 (configuration not stated),29.2%,–,–
COc1ccc(/C=N/NS(=O)(=O)c2ccc(C)cc2)cc1,12.8%,–,"6.51 µM [rising, single point]"
Cc1ccc(C(C)C)c(OCCN2C(=O)NC(C)(C)C2=O)c1,14.4%,–,"1.64 µM [falling, partial curve]"
Cc1ccc(C(=O)CN(CCCC(N)=O)S(=O)(=O)c2ccc([N+](=O)[O-])cc2)cc1,4.62%,"0.0259 µM [rising, partial curve, poor fit]","0.00411 µM [rising, full curve, poor fit]"
NC(=S)N/N=C/c1cc([N+](=O)[O-])ccc1OCCOc1ccccc1,-24.6%,–,–
O=C(COc1ccc(Br)cc1CNCCc1ccccc1)NCc1ccccc1,-41.7%,"15.8 µM [falling, single point]","14.1 µM [falling, single point]"
CCCn1ncc(C(=O)NC2CCCN(Cc3ccc(Cl)cc3)C2)c1C (configuration not stated),24.4%,–,–
COc1ccc(NC(=O)CSCC(=O)Nc2ccc(S(=O)(=O)N3CCOCC3)cc2)cc1,23.1%,–,"0.0291 µM [falling, full curve, poor fit]"
CCc1cc2c(=O)c(-c3ccc4c(c3)OCCO4)c(C)oc2cc1OS(C)(=O)=O,-23.2%,–,"18.4 µM [falling, single point]"
C=CCN(C(=O)CNC(=O)c1ccco1)C(C(=O)NC1CCCCC1)c1ccccc1 (configuration not stated),18.1%,–,–
CC1CCc2cc(F)ccc2N1C(=O)CSc1nnc2c3ccccc3n(C)c2n1 (configuration not stated),29.1%,–,"1.84 µM [rising, partial curve, poor fit]"
CC(C)Cc1nnc(NC(=O)CCC(=O)Nc2ccccc2)s1,-2.12%,–,"0.651 µM [rising, single point]"
O=C(CCS(=O)(=O)Cc1ccccc1)N1CCN(Cc2ccccc2)CC1,-9.8%,–,–
O=C(NCc1ccccc1)c1cccc(COc2ccc(Cl)cc2)c1,-28.1%,–,–
Cc1ccc[n+](-c2[nH]c(=O)sc2/C=N/N=C(\[O-])c2cccnc2)c1,7.66%,–,–
CCOC(=O)c1cccc(NC(=O)C2CCCO2)c1 (configuration not stated),9.69%,–,"2.06 µM [falling, partial curve]"

SMILES,cell number change,AC50 [1],AC50 [2]
COc1ccc(C)cc1Cn1nnc2ccccc21,-4.92%,–,"8.2 µM [rising, partial curve, poor fit]"
CN(/N=C/c1ccccc1O)C(=S)c1ccccc1,22%,–,–
CC(=O)C1CCN(Cc2ccccc2)CC1,-31.7%,"2.31 µM [falling, full curve]","18.4 µM [falling, partial curve]"
C=CCn1c(CSCc2ccc(Cl)cc2)nnc1SCC(=O)NCc1ccccc1,19.2%,–,–
CC(=O)c1cnn(-c2cc(Oc3ccc(F)cc3)ncn2)c1C,2.66%,–,"6.51 µM [rising, single point]"
Cc1ccc2nc(N3CC(=O)Nc4ccccc43)nc(-c3ccccc3)c2c1,-60.7%,"18.4 µM [falling, single point]","29.1 µM [falling, single point]"
O=C1c2ccccc2C(=O)c2c1ccc(C(=O)N1CCCCC1)c2NCCO,-1.93%,–,–
O=C(COC(=O)CC1CCCC1)Nc1cc2c(cc1Cl)C(=O)c1ccccc1C2=O,-2.4%,–,"0.231 µM [falling, full curve]"
COc1ccc(CNCC(O)(c2ccccc2)c2ccccc2)cc1OC,-30.8%,"0.58 µM [rising, full curve]",–
COc1ccccc1NC(=O)CCC(=O)OCc1ccc(Cl)cc1,8.17%,–,"29.1 µM [falling, single point]"
Cc1ccc(-c2nnn(CC(=O)N(CC3CCCO3)C(C(=O)NC3CCCCC3)c3ccc(F)cc3)n2)o1 (configuration not stated),12.5%,"6.51 µM [rising, single point]","8.2 µM [rising, partial curve]"
CC1CCC(C(=O)c2c(O)c3ccccc3oc2=O)CC1 (configuration not stated),-7.76%,–,"0.13 µM [rising, full curve, poor fit]"
COc1ccc(C(CNC(=O)c2ccc(NS(=O)(=O)c3ccc4c(c3)OCCO4)cc2)N(C)C)cc1 (configuration not stated),52.5%,"29.1 µM [rising, single point]",–
COC(=O)Nc1ccc(S(=O)(=O)NCc2ccccn2)cc1,12.6%,–,–
Cc1c(C(=O)Nc2cccc(Cl)c2)cn2c(nc3ccccc32)c1C#N,0.287%,–,"4.61 µM [rising, single point]"
CC(C)OCCCNC(=O)C1CCN(S(=O)(=O)N2CCCC2)CC1,15.9%,–,"0.461 µM [falling, single point]"
Cc1ccccc1NC(=O)CSc1nc2ccccc2c(=O)n1C,–,–,"0.291 µM [falling, partial curve, poor fit]"
CC(O)C(C(=O)OCc1ccc([N+](=O)[O-])cc1)N1C(=O)c2ccccc2C1=O (configuration not stated),–,–,"5.8 µM [falling, full curve, poor fit]"
CC1CCN(C(=O)C2CCN(S(=O)(=O)c3ccc(-n4cnnn4)cc3)CC2)CC1,30.3%,"29.1 µM [rising, single point]",–
CC(=O)N1CCN=C1SCc1ccc(Br)cc1,59.9%,"10.3 µM [rising, partial curve]","20.6 µM [rising, partial curve]"

# Compounds above containing a thiophene ring, fused or not (two):
SMILES,cell number change,AC50 [1],AC50 [2]
Cc1c(Cc2ccc3c(c2)OCO3)sc(NC(=O)C(C)(C)C)c1C#N,31.7%,"5.8 µM [rising, full curve, poor fit]","5.8 µM [rising, full curve]"
CC1=C(C(N)=O)C(c2sccc2C)n2nnnc2N1 (configuration not stated),-9.48%,–,–

# From PubChem BioAssay AID2685 (National Center for Advancing Translational Sciences (NCATS), 2010)
